Assay results published in US20120010158A1, “TUMOR NECROSIS FACTOR INHIBITING PEPTIDES AND USES THEREOF” (PANACEA BIOTEC LTD., priority 2008, published 2012).
Part of at least one peptide drawing is inferred or uncertain, most often the ends. Residues, ends and D or L forms follow the SMILES beside them.

By UniProt entry, the sequences of proteins in these tests, tags left out. Residues count along the entry.
UniProt P01375, 77-233 limits assumed, species assumed: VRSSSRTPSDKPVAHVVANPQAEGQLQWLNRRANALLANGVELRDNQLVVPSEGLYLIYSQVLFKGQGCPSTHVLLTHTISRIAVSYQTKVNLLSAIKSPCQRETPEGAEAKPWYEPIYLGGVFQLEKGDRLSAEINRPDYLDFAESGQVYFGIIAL

What was measured:
[1] = tested on: collagen induced arthritis; assay: Murine model of collagen induced arthritis; type: in vivo, C57BL/6 mice; details: 5 mg/kg i.v. three times in first week then once every week for three weeks; pre vs post treatment; Example 5(d), FIG. 8a
Protocol: Male C57BL/6 mice obtained from animal house at Lalru, Panacea Biotec were used to develop a murine model of rheumatoid arthritis. Mice were intradermally immunized with 150 μg of chicken type-II collagen (Sigma) emulsified in complete Freunds adjuvant (CFA) (Sigma). On day 17 after primary immunization, a booster immunization with 100 μg of chick type II collagen in incomplete Freunds adjuvant was administered to animals (Ethan M Shevach, Curr. Prot. Immunol. 2002: 15.0.1-15.0.6; Inglis J et al, 2008 Nature Protocols, 4:612-618). Increase in paw thickness as compared to controls (healthy, male C57BL/6 mice) and presence of anti-collagen IgG antibodies were the parameters to assess development of arthritis. Paw thickness in animals was measured using digital Vernier Calipers and anticollagen antibodies were measured in the mouse serum on day 35 after immunization.
Chicken type-II collagen (sigma) was coated onto ELISA plates at 1 μg/ml in PBS and incubated overnight at 4° C. […] Absorbance was recorded at 490 nm (Ethan M Shevach, Cum Prot. Immunol. 2002: 15.0.1-15.0.6). […]
Development of disease in collagen induced arthritis is accompanied by an increase in Th1 or proinflammatory response. IgG1/IgG2a levels were measured to determine that whether treatment with the peptides of the present invention and Etanercept improved clinical disease in murine model by decreasing Th1 response. […]

[2] = molecular target: TNF-alpha (Homo sapiens, UniProt P01375); assay: Inhibition of TNF-α binding to its receptor TNF-R1 on U937 cells (flow cytometry); set-up: host or cells: U937 cells carry the partner receptor endogenously; details: U937 cells with complex of peptide and TNF-alpha (5 ng); untreated 78±1%, TNF-alpha alone 32±10%
Text: Flow cytometry assay technique was used to investigate binding of peptides to TNF-α or TNF-R1 employing U937 cells (a TNF-receptor expressing human leukemia cell line). Binding of peptide to TNF-α prevents TNF-α from interacting with TNF-R1 which can be analyzed by flow cytometry. Similarly, direct binding of peptide with TNF-R1 reduces percent TNF-R1 positive cells which can be analyzed by flow cytometry.
TNF-alpha binds to its cognate receptor TNF-R1 on U937 cells (ATCC) leading to a reduction in percent cells positive for TNF-R1. TNF-alpha binding peptides bind to TNF-alpha and prevent the interaction of TNF-alpha with TNF-R1. The percent cells positive for TNF-R1 can be quantified by staining with fluorochrome conjugated anti-TNF-R1 antibody.
Peptides of Sequence ID-2 and Sequence ID-6 were analyzed for inhibition of TNF-alpha binding to its receptor TNF-R1 on U937 cells. Inhibition of TNF-alpha binding to TNF-RI on U937 cells by peptides with sequence ID-2 or sequence ID-6 was estimated, using fluorescent activated cell sorter (FACS, FACSCALIBUR, Becton Dickinson, USA). […]

CC(C)C[C@H](NC(=O)[C@H](CO)NC(=O)[C@@H](N)Cc1c[nH]c2ccccc12)C(=O)O [Sequence ID-2, Trp--Ser--Leu] (H-Trp-Ser-Leu-OH)
paw thickness [1]: significant lowering of paw thickness | percent cells positive for TNF-R1 [2]: 37±8.5%
